According to PMC11624269:
No constants are given. Whether binding was seen depends on the method and setting. In cells and extracts the contact can be indirect. Some binding calls cover weakened binding; strength is not graded here.

Protein sequences, listed by entry. Tags and fused reporters are not part of them. Lines headed by an entry give the natural chain unless they say otherwise; changes in a name come on top.
UniProt P41229: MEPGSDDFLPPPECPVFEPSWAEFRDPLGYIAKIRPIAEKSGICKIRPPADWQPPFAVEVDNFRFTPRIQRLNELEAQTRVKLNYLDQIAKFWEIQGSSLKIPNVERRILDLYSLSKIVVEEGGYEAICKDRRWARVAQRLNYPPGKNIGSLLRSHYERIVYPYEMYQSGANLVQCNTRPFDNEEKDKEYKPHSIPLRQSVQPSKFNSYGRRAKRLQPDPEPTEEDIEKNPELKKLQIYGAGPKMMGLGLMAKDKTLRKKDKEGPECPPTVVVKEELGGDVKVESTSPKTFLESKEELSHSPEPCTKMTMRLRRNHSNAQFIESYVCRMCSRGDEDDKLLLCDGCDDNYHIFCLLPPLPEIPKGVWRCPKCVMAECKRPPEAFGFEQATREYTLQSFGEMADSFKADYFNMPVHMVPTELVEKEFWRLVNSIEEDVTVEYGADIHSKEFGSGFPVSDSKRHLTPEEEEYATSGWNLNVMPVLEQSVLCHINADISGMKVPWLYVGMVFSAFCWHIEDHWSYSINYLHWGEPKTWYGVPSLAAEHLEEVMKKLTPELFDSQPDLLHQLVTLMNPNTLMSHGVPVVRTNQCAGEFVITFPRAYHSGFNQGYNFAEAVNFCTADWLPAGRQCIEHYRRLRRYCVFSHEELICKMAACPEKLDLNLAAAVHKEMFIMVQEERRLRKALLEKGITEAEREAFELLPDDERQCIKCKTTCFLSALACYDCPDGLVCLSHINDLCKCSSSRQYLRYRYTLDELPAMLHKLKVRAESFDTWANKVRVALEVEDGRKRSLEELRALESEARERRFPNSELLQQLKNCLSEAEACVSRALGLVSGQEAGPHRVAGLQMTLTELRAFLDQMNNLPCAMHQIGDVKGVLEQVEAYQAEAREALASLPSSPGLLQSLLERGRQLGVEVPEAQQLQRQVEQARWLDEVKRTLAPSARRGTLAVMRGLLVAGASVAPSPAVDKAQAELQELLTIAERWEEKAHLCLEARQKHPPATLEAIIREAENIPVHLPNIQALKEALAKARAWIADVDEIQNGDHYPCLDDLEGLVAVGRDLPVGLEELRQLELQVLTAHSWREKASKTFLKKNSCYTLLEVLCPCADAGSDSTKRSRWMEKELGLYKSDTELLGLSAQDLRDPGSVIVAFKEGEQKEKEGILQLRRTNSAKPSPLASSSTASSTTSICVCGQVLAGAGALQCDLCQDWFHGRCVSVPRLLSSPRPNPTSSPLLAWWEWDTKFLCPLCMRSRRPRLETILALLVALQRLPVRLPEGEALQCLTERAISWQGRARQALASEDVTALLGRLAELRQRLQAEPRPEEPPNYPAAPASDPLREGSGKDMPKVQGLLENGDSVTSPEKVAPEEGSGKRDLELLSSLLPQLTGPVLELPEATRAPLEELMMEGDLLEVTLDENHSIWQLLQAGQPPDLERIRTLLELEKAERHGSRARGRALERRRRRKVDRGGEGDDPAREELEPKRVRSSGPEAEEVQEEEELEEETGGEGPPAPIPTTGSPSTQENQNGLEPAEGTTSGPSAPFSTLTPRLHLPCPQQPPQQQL
UniProt P25490: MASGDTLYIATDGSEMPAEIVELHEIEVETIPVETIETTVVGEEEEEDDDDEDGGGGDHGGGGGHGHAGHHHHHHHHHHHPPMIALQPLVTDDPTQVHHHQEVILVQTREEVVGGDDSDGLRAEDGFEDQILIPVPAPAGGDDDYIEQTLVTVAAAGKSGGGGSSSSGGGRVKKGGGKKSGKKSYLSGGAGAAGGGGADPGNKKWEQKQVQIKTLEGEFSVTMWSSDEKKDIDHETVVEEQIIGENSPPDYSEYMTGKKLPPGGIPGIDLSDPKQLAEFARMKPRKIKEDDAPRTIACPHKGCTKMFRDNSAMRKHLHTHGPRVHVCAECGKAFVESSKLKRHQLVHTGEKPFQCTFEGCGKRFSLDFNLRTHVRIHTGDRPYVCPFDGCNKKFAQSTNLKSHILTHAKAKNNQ

Tests used:
[1] = molecular target: KDM5C-Flag expressed in 769-P renal cancer cells (human) (UniProt P41229); test: co-IP; semi-endogenous: KDM5C-Flag transfected into 769-P cells, endogenous YY1 detected by western blot
[2] = molecular target: KDM5C, endogenous in HEK293 cells (human (endogenous in HEK 293)) (UniProt P41229); test: co-IP; endogenous proteins; lysate with KDM5C antibody or homologous IgG 6 h at 4 °C, Protein A/G agarose overnight; western blot
[3] = molecular target: KDM5C with HA or Flag tag, expressed in HEK293T cells (human) (UniProt P41229); test: co-IP; HEK293T cells transfected with HA- or Flag-tagged constructs, 48 h; IP lysis buffer, sonicated; anti-HA or anti-Flag magnetic beads overnight at 4 °C; washed in TBS-T; western blot (mutual co-IP)
[4] = molecular target: KDM5C-H514A mutant with HA or Flag tag, expressed in HEK293T cells (human) (UniProt P41229); test: as above

YY1, endogenous in 769-P renal cancer cells (from UniProt P25490 1-414)
binding [1]: binds

Yin Yang 1 (YY1), endogenous in HEK293T cells (from UniProt P25490 1-414)
binding [2]: binds

YY1 with HA or Flag tag, expressed in HEK293T cells (from UniProt P25490 1-414)
binding [3]: binds
binding [4]: binds
